Structures were worked out from names or drawings and are uncertain.
Legend:
[1] = biological target: EGFR WT (BaF3 WT cells) (Homo sapiens, UniProt P00533); experiment: EGFR degradation HTRF assay, BaF3 WT cells; type: cell-based
Description: (§1) BaF3 WT(wild type), BaF3-LTC(L858R/T790M/C797S) and BaF3-DTC(Del19/T790M/C797S) cells are treated with compounds diluted in 0.2% DMSO cell culture medium and incubate for 16h, 37° C., 5% CO2, H1975-#36, H1975-#28, H1975-#23 and HCC827 cells are treated with compounds diluted in 0.2% DMSO cell culture medium on day 2, incubate for 16h, 37° C., 5% CO2.the final concentriation of compounds in all assay is start with 10 uM, 5-fold dilution, total 8 doses were included.
(§2) After 16h treatment, add HTRF lysis buffer to each well; seal the plate and incubate 1 hour at room temperature on a plate shaker; Once the cells are lysed, 16 μL of cell lysate are transferred to a PE 384-well HTRF detection plate; 4 μL of pre-mixed HTRF antibodies are added to each well; Cover the plate with a plate sealer, spin 1000 rpm for 1 min, Incubate overnight at room temperature; Read on BMG PheraStar with HTRF protocol (337 nm-665 nm-620 nm).
(§3) The inhibition (degradation) percentage of the compound was calculated by the following equation: Inhibition percentage of Compound=100-100×(Signal-low control)/(High control-low control), wherein signal=each test compound group
(§4) High control=Cell group with added DMSO and without compound, indicating microplate readings without EGFR degradation;
(§5) Dmax is the maximum percentage of inhibition (degradation). […]

Chains of the proteins cited; added tags and fusions are not shown. Lines headed by an entry give the natural chain unless they say otherwise; changes in a name come on top. A line that says so, or that is headed by a name, gives the form on record, which may keep a tag or linker. Residues count along the entry.
UniProt P00533, 25-1210 limits assumed: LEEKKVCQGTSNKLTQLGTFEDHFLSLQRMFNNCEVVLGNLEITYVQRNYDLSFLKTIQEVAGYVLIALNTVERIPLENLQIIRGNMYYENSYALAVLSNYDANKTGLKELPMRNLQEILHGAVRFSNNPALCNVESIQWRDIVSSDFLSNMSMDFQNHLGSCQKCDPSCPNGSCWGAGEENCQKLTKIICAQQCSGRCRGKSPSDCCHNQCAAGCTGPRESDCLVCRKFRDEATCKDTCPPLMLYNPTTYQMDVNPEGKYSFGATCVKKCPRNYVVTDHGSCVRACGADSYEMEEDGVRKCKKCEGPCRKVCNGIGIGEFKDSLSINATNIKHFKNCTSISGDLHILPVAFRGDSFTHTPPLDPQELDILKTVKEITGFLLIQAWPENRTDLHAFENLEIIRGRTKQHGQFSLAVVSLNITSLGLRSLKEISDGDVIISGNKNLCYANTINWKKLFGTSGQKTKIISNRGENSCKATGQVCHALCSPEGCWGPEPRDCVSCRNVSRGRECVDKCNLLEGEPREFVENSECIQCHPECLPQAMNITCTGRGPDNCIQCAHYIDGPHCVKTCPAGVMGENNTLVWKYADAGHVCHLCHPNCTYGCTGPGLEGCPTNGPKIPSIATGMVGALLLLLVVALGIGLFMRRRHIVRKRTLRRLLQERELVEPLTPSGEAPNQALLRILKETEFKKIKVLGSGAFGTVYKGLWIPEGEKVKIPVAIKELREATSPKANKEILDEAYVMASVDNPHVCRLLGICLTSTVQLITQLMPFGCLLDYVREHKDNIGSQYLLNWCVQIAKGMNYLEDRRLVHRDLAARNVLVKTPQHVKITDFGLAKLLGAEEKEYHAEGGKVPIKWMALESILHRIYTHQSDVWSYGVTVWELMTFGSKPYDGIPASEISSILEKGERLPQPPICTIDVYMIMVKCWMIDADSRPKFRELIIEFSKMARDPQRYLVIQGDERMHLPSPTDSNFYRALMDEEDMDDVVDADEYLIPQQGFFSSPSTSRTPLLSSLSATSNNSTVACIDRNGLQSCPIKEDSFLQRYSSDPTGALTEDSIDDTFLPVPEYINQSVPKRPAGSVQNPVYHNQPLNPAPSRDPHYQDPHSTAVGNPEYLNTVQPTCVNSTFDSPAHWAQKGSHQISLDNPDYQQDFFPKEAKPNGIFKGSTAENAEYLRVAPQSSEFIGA
UniProt P00533, 25-1210 T790M/C797S/L858R limits assumed: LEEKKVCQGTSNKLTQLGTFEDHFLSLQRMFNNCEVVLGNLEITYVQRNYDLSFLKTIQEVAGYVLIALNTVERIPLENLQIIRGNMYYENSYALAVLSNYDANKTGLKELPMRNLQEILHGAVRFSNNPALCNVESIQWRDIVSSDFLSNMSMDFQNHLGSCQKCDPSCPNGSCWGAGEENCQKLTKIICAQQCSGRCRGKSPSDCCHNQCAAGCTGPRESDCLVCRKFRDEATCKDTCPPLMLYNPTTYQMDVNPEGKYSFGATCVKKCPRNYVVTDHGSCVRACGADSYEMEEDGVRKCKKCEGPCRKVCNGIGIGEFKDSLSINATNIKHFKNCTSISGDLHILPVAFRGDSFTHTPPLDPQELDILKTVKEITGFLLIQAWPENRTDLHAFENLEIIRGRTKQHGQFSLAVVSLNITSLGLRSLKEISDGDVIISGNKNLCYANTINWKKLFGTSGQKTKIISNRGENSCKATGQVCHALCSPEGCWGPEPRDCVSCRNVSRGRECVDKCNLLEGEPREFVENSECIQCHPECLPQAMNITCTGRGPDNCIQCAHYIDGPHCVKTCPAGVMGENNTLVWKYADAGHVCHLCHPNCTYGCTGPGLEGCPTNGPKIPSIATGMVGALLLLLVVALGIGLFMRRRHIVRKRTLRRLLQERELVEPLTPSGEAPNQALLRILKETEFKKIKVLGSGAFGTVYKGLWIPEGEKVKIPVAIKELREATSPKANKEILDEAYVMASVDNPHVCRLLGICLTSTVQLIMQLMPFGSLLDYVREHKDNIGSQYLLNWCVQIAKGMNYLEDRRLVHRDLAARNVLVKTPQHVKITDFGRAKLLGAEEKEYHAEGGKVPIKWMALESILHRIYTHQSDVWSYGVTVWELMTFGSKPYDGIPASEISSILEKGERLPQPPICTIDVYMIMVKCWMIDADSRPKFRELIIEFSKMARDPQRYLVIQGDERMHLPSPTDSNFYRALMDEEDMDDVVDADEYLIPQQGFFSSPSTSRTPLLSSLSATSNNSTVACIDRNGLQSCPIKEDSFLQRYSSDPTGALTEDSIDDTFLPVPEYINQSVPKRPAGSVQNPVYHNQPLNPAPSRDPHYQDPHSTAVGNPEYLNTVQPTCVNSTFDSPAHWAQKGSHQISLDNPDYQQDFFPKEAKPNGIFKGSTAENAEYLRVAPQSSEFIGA
UniProt P00533, with tags, fused parts or gaps DEL746-750 limits assumed: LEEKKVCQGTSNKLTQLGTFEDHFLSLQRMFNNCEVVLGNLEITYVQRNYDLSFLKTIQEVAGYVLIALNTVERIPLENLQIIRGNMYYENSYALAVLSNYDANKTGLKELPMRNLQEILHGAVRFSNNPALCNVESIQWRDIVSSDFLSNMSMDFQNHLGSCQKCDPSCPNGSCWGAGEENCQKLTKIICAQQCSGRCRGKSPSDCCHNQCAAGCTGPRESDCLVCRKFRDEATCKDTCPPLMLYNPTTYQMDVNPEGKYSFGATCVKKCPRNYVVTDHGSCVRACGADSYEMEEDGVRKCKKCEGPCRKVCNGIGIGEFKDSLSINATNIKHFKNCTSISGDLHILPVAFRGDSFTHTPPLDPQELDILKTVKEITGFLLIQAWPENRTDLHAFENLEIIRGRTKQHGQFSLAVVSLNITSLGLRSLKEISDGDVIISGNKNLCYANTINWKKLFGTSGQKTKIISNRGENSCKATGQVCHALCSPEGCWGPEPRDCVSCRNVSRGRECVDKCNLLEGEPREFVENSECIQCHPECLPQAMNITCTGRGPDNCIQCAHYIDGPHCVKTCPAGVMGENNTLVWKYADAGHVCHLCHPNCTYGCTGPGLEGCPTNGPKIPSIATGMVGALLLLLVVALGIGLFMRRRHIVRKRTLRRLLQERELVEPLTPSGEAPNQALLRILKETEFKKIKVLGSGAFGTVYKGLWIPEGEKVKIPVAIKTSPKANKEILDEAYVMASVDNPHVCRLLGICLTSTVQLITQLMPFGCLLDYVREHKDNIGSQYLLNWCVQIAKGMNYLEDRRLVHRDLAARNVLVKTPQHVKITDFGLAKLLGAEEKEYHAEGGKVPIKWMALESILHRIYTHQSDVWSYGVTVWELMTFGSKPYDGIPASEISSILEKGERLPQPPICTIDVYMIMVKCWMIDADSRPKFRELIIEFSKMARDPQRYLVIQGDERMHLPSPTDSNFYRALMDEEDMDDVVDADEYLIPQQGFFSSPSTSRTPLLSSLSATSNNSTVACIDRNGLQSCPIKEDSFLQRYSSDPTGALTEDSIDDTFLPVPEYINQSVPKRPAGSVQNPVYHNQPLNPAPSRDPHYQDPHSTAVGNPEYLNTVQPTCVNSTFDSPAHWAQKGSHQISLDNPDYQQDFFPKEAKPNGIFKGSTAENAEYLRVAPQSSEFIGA

[2] = system: EGFR Del19/T790M/C797S (BaF3-DTC cells); experiment: EGFR degradation HTRF assay, BaF3-DTC cells; type: cell-based
Description: as §1, §2, §3, §4, §5

[3] = biological target: EGFR L858R/T790M/C797S (BaF3-LTC cells) (Homo sapiens, UniProt P00533, C797S/L858R/T790M); experiment: EGFR degradation HTRF assay, BaF3-LTC cells; type: cell-based
Description: as §1, §2, §3, §4, §5

[4] = biological target: EGFR (HCC827 cells) (Homo sapiens, UniProt P00533, DEL746-750); experiment: EGFR degradation HTRF assay, HCC827 cells; settings: HCC827, 16h treatment
Description: as §1, §2, §3, §4, §5

[5] = 16h treatment, maximum percentage of degradation

## COc1cc(CCC2CCN(CCc3ccc(C4CCC(=O)NC4=O)cc3)CC2)ccc1Nc1ncc(Br)c(Nc2ccc3nccnc3c2P(C)(C)=O)n1 (centres unmarked)
[1]; [5]
  WT Dmax (%): 30.08%
[1]; read-out: WT DC50, 16h treatment
  DC50: > 10000 nM
[2]; [5]
  DTC Dmax (%): 96.43%
[2]; read-out: DTC DC50, 16h treatment
  DC50: 8.86 nM
[3]; [5]
  LTC Dmax (%): 94.88%
[3]; read-out: LTC DC50, 16h treatment
  DC50: 9.53 nM
[4]; maximum percentage of degradation
  HCC827 Dmax (%): 78.03%
[4]; read-out: HCC827 DC50
  DC50: 77.3 nM
